# Data as given in patent US4209442A (Richter Gedeon Vegyeszeti Gyar Rt., priority 1977, dated 1980).
# Assay: general procedure: solution-phase peptide synthesis; pentafluorophenyl active esters (OPFP)
# Settings: coupling step
row,Substance,step yield [%]
1,Z-OAlal-Arg(NO2)-Val-Tyr(Bzl)-Ile-His(Dnp)-Pro-Leu-ONP,93
2,Z-OGly-Arg(NO2)-Val-Tyr(Bzl)-Ile-His(Dnp)-Pro-Ala-ONB,83
3,Z-OGly-Arg(NO2)-Val-Tyr(Bzl)-Ile-His(Dnp)-Pro-Leu-ONB,85
4,Z-OGly-Arg(NO2)-Val-Tyr(Bzl)-Ile-His(Dnp)-Pro-Thr(Me)-OMe,93

# Same assay, conditions: late stage modification step
row,Substance,step yield [%]
1,(L-α-hydroxypropyl^1 -Leu^8)-angiotensin II,70
2,Z-OAla-Arg(NO2)-Val-Tyr(Bzl)-Ile-His-Pro-Leu-ONB,92
